The nature of this assay: qHTS Assay for Lipid Storage Modulators in Drosophila S3 Cells.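 As to cell number change: cells counted by Cell Tracker Red CMTPX staining in the red channel.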 The following applies: BODIPY lipid droplet fluorescence, 18-24 h; for cell number change: measured here: cell count max response, cells fed with added oleic acid. Summed up: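 Drosophila S3 cells loaded with oleic acid (400 uM, as added) and compounds at several concentrations; lipid droplets imaged by 488-nm laser-scanning cytometry, 500–530 nm intensity and object ratio to cell channel. Percent activity normalized to 20 uM Triacsin C.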
In general terms: In qHTS, concentration-response curves come from the screen itself.

Setting [1] is: measured here: lipid fluorescence (Fed channel) AC50, cells fed with added oleic acid.
[2] abbreviates: measured here: cell number channel AC50, cells fed with added oleic acid.

This is one part of the list. The main result of the screen is listed elsewhere. These columns were measured beside it and carry no call. Compounds called inactive in the main read-out are mostly missing here. Words in brackets tell the shape of the fitted curve; partial curves, single points and poor fits give uncertain potencies.

As for `CC(C)n1nc(C(=O)Nc2ccccc2N2CCOCC2)c2ccccc2c1=O`, the cell number change was found to be 13.3%. In addition, the half-maximal activity concentration (AC50) under setting [1] is 0.651 µM [falling, single point].
As to `CN(C)C(=O)c1cc2cc(Br)ccc2s1`, the cell number change is 8.31%. Moreover, the AC50 under setting [2] is 3.26 µM [falling, single point]. The concentration at half-maximal activity (AC50) under setting [1] is 3.66 µM [falling, single point].
Take `O=C(Nc1cccc(Cl)c1)N1CCc2ccccc2C1`: the cell number change was found to be 1.72%. The AC50 under setting [1] was 32.6 µM [falling, single point].
`CCOC(=O)N1CCC(NC(=O)CC2C(=O)NCCN2Cc2cccc(F)c2F)CC1` (centres undefined): the cell number change was found to be 2.05%. Besides, the AC50 under setting [1] is 6.51 µM [falling, single point].
As for `CCOc1ccccc1CNc1ccc(O)cc1`, the cell number change was -64.9%. Also, the half-maximal activity concentration (AC50) under setting [2] was 29.1 µM [falling, single point]. The half-maximal activity concentration (AC50) under setting [1] is 29.1 µM [falling, single point].
Consider `Cc1ccc(C)c(NC(=S)N(Cc2cccc(Br)c2)CC2CCC(C(=O)O)CC2)c1` (centres undefined), for which the AC50 under setting [1] was 6.51 µM [rising, single point].
Consider `C=CCOc1ccc2nnc(C)n2n1`, for which the cell number change was -0.505%. Moreover, the concentration at half-maximal activity (AC50) under setting [1] is 9.2 µM [rising, partial curve].
For `CCCOc1cccc(C(=O)NCCNC(=O)c2ccccn2)c1`, the cell number change was -28.9%. Also, under setting [2], the concentration at half-maximal activity (AC50) is 0.184 µM [rising, partial curve].
On to `CN(C)N=Nc1ccc2nc[nH]c2c1`, for which the AC50 is, setting by setting: under setting [2], 3.26 µM [rising, partial curve, poor fit]; under setting [1], 29.1 µM [rising, single point].
Take `Cc1ccc(C(=O)c2c3ccc(N)cc3nn2CCC(N)=O)cc1`: the cell number change is 8.38%. Besides, the AC50 under setting [2] was 0.0651 µM [rising, full curve, poor fit].
Turning to `COc1ccc(C2c3c(ccc4ccccc34)Oc3ncn4nc(CO/N=C/c5ccccc5)nc4c32)cc1` (centres undefined), the cell number change worked out at 27.8%. For the same molecule, the concentration at half-maximal activity (AC50) under setting [1] was 6.51 µM [falling, single point].
For the molecule `O=C(Nc1ccc(Oc2ccc3ccccc3c2)cc1)c1ccco1`, the cell number change was -21.5%.
On the same count and under the same terms, for `O=C(/C=C/c1ccc(F)cc1)OCC(=O)c1ccc[nH]1` the value was -8%.
Turning to `CCCCn1nnnc1NCc1cccc(OC)c1OC`, the cell number change amounted to 67.3%. Also, the AC50 under setting [2] was 18.4 µM [rising, single point].
`COc1ccc(C2(NC(C)=O)CCN(C(=O)CCC(=O)O)CC2)cc1`: the cell number change was 10.9%. Further, the AC50 under setting [1] is 23.1 µM [falling, single point].
For `CC(On1nnc2ccc(S(=O)(=O)N3CCOCC3)cc21)C(=O)Nc1ccccc1F` (centres undefined), the cell number change was 41%. The AC50 under setting [2] was 20.6 µM [rising, single point].
With `O=C(CCn1cnc2ccccc21)N/N=C/c1ccc(O)cc1`, the cell number change stood at 18%.
In the case of `CC(=O)NC1=NN(C(C)=O)C(C)(c2ccc(C)o2)S1` (centres undefined), the cell number change was 35.3%. In addition, the half-maximal activity concentration (AC50) under setting [2] was 32.6 µM [rising, partial curve, poor fit].

Usually AC50 stands for the midpoint of the concentration-response curve, whichever way the signal moves. Low readings indicate greater potency, high ones weaker potency.
